The values below come from publication PMC11288445.

No constants are given. Whether binding was seen depends on the method and setting. Binding can be weak; no strength is given. Sequences can lack the tags named with a protein. For some assays here: Binding seen in cells or lysates may run through a third protein.

Assay [1] has as its target 6xHis-TGMV AL2 (tomato golden mosaic virus AL2 protein, N-terminal six-histidine tag) (tomato golden mosaic virus). As to the kind of experiment: far-Western, overlay or dot blot; 6xHis-tagged proteins resolved on 4-20% gels and transferred to nitrocellulose; blots overlayed with 15 μg soluble protein extracts from E. coli expressing GST or GST-TCP24 overnight at 4°C; detected with anti-GST antibody; only the target purified.

The target of assay [2] is FLAG-AL2 (TGMV AL2 with N-terminal FLAG, expressed from pTRBO) (tomato golden mosaic virus). As to the kind of experiment: co-IP; FLAG-AL2 co-expressed with GST-tagged proteins in N. benthamiana leaves, 48 h; tissue fixed with formaldehyde, chromatin purified and sonicated; IP with anti-FLAG M2 agarose overnight at 4°C, washes up to 500 mM NaCl; blot with anti-GST.

B1: GST-TCP24 (Arabidopsis thaliana TCP24, N-terminal glutathione-S-transferase fusion, from E. coli) (protein, UniProt Q9C758 1-324)
chain: MEVDEDIELQKHQEQQSRKLQRFSEDNTGLMRNWNNPSSRIIRVSRASGGKDRHSKVLTSKGLRDRRIRLSVATAIQFYDLQDRLGFDQPSKAVEWLINAASDSITDLPLLNTNFDHLDQNQNQTKSACSSGTSESSLLSLSRTEIRGKARERARERTAKDRDKDLQNAHSSFTQLLTGGFDQQPSNRNWTGGSDCFNPVQLQIPNSSSQEPMNHPFSFVPDYNFGISSSSSAINGGYSSRGTLQSNSQSLFLNNNNNITQRSSISSSSSSSSPMDSQSISFFMATPPPLDHHNHQLPETFDGRLYLYYGEGNRSSDDKAKERR
With B1, in assay [1], the binding result is given as “binds”.

B2: GST-TCP24 (Arabidopsis thaliana TCP24, N-terminal GST fusion, expressed from pTRBO in N. benthamiana) (protein, UniProt Q9C758 1-324)
chain: B1 chain
Consider B2, for which the binding result in assay [2] is listed as “binds”.
